At least one structure is not confirmed: it was looked up by name or label, or the drawing left a doubt. Some of these results come from one statement about several compounds together. Where a SMILES comes first, the peptide text is derived from it. Bridges are numbered along the chain shown (N, C = ends). [ ]: non-standard residue; d: D form. The star is where a group is joined. Ileψ(thiazoline)Cys = CC[C@H](C)[C@H](N)C1=N[C@H](C(=O)*)CS1; dOrn = NCCC[C@@H](N)C(=O)O
Tested on: RW583
Assay: Antibiotic susceptibility of the blr::TnphoA insertion mutant compared with the parent
Type: cell-based, E. coli
Conditions: transconjugant RW583 (blr::TnphoA) versus parental strain
Source text: Donor E. coli K 12 strain S17-1 λpir (Tp^rSm^rrecA, thi, pro, hsdR^−M^+RP4;2-Tc:Mu:KmTn7,λpir; George and Levy. 1983. J Bacteriol 1983 Aug; 155 (2): 531-48) containing a conjugatable transposon-delivery plasmid pUT/Km (able to replicate only in the donor) which bore mini-Tn5phoA (de Lorenzo, V. & Timmis, K. N. Meth. Enzymol. 235, 386-404 (1994)) was mated with recipient ASS111rif and plated on kanamycin/rifamycin. Transconjugant RW583 had both PhoA activity and a 2-4 fold enhanced susceptibility to a wide spectrum of antibiotics […] including cephalosporins and imipenem (Table 1) as well as cycloserine and bacitracin, while susceptibility to tetracycline, chloramphenicol, nalidixic acid, norfloxacin, gentamicin, fosfomycin or valinomycin was not affected. The insertion was transduced (Provence, D. L. & Curtiss, R. I. in Methods for General and Molecular Bacteriology (ed. Gerhardt, P., Murry, R. G. E., Wood, W. A. & Kreig, N. R.) 317-347 (American Society for Microbiology, Washington D.C. 1994)) by bacteriophage P1 into other E. coli K12 strains, where it had the same effect on susceptibility (Table 1).
The cloned 358 base pairs region restored the wild type phenotype to the hypersusceptible strain bearing blr::TnphoA, regardless of orientation with respect to the lac promoter (Table 1, pRW23C vs pRW23D). The HindIII/PstI fragment of pACYC 184 (carrying the tet promoter and part of the tet gent) was replaced by the HindIII/PstI fragment from pRW23D. […] Therefore the 358 base pairs region appeared to contain all the information needed for complementation.

Row | Structure (SMILES) | enhanced susceptibility of the insertion mutant | effect of the insertion on susceptibility
1 | CC[C@H](C)[C@H](N)C1=N[C@H](C(=O)N[C@@H](CC(C)C)C(=O)N[C@H](CCC(=O)O)C(=O)N[C@H](C(=O)N[C@H]2CCCCNC(=O)[C@H](CC(N)=O)NC(=O)[C@@H](CC(=O)O)NC(=O)[C@H](Cc3cnc[nH]3)NC(=O)[C@@H](Cc3ccccc3)NC(=O)[C@H]([C@@H](C)CC)NC(=O)[C@@H](CCCN)NC2=O)[C@@H](C)CC)CS1 [bacitracin] ({Ileψ(thiazoline)Cys}-L[dE]IK[dOrn]I[dF]H[dD]N; lactam 4-C) | 2-4 fold | 
2 | N[C@@H]1CON=C1O [cycloserine] | 2-4 fold | 
3 | CN(C)[C@@H]1C(O)=C(C(N)=O)C(=O)[C@@]2(O)C(O)=C3C(=O)c4c(O)cccc4[C@@](C)(O)[C@H]3C[C@@H]12 [tetracycline] |  | not affected

— US20020051982A1, “Novel BLR molecules affecting antibiotic susceptibility” (priority 2000, published 2002)
